From the supplement of paper PMC10849652
The list shows a part of the results.

The chains behind the UniProt entries cited, without tags or fusion partners. Where a name states a change or a piece, a line headed by the entry shows the natural chain unless it says otherwise.
UniProt P61966: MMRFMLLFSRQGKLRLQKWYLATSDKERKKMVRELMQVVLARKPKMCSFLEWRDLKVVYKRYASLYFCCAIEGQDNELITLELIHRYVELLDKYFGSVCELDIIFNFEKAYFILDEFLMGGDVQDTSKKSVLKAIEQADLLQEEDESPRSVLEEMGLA
UniProt P53365: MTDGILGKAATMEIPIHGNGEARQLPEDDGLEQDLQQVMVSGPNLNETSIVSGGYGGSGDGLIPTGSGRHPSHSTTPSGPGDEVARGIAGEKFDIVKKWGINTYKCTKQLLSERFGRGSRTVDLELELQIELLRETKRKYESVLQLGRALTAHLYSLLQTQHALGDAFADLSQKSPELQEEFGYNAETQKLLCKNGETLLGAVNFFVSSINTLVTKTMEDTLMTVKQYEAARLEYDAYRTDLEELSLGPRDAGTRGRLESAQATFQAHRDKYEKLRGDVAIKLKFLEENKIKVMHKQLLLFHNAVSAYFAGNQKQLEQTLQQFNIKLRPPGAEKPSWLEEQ
UniProt P08133: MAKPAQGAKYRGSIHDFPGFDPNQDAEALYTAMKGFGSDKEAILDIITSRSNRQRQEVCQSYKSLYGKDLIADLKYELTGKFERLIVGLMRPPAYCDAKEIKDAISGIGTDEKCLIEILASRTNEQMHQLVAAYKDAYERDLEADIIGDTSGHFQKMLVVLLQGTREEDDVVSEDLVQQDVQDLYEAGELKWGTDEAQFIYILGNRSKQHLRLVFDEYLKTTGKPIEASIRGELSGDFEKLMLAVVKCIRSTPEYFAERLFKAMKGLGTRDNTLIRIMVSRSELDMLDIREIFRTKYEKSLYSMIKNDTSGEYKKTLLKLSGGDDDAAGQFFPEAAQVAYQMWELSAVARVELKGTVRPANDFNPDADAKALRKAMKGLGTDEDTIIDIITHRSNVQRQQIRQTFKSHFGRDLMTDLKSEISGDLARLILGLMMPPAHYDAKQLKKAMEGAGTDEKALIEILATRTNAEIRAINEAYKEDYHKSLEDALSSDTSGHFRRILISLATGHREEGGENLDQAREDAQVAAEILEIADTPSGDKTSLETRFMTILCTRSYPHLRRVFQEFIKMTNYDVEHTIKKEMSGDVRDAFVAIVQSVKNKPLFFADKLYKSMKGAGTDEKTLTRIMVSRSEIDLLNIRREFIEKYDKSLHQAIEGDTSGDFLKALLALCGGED
UniProt Q96P48: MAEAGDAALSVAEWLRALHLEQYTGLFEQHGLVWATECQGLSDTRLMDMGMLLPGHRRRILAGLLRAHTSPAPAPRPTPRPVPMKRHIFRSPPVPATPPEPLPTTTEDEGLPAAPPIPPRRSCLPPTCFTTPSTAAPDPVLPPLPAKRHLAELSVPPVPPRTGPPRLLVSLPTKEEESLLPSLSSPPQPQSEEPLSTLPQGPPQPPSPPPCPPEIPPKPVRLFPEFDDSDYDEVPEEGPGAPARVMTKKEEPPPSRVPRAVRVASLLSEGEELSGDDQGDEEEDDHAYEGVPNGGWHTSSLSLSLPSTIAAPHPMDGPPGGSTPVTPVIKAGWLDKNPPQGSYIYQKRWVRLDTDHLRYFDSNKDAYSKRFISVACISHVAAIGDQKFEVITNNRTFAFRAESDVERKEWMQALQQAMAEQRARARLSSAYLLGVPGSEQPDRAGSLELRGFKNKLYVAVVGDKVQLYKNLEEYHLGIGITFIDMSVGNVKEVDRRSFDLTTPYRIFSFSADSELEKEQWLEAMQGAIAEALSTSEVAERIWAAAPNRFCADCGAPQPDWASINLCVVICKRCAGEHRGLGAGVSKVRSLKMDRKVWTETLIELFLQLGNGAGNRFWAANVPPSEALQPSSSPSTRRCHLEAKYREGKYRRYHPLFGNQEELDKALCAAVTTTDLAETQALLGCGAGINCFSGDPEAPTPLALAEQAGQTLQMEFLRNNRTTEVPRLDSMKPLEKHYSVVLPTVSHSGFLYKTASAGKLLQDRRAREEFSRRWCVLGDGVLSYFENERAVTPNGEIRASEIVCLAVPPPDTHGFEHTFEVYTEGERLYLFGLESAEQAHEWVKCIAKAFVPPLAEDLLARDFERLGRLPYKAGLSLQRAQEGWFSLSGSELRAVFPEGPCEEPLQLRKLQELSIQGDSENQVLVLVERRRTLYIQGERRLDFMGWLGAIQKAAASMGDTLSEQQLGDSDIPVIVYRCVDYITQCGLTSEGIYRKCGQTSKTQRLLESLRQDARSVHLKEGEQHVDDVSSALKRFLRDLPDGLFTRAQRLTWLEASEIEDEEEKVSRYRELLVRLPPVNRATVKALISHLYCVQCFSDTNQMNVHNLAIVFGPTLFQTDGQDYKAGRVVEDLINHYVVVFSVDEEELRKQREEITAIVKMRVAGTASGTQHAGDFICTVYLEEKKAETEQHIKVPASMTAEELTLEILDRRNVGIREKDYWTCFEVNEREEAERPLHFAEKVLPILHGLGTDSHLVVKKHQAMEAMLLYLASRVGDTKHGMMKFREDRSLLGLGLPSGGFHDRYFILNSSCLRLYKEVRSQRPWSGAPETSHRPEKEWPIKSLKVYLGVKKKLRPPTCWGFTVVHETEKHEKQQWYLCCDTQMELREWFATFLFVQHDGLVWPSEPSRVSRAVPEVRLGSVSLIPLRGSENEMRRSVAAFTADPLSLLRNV
UniProt Q63HQ0: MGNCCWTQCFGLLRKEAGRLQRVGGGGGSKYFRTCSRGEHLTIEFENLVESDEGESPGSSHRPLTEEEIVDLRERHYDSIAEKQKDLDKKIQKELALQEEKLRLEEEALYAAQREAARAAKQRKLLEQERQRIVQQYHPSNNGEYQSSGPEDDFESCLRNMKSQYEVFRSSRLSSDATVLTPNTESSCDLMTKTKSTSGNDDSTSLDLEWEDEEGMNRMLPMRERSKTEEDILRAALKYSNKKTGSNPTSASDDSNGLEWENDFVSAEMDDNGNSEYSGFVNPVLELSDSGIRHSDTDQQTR
UniProt P27695, whole entry, looked up: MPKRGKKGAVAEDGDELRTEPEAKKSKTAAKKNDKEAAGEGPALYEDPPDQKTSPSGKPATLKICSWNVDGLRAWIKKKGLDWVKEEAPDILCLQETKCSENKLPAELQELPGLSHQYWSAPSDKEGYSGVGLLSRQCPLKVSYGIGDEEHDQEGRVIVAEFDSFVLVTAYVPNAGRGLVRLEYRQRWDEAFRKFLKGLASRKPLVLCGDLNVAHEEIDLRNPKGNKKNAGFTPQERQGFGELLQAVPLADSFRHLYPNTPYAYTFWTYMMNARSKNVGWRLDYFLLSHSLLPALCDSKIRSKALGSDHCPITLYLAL
UniProt Q8WVL7: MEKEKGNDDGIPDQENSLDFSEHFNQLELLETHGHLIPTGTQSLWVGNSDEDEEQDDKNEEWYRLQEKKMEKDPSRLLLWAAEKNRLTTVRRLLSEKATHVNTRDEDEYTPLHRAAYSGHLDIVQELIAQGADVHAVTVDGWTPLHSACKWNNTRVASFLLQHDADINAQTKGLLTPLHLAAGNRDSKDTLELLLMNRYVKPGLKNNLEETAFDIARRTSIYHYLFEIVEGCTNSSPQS
UniProt Q68EM7: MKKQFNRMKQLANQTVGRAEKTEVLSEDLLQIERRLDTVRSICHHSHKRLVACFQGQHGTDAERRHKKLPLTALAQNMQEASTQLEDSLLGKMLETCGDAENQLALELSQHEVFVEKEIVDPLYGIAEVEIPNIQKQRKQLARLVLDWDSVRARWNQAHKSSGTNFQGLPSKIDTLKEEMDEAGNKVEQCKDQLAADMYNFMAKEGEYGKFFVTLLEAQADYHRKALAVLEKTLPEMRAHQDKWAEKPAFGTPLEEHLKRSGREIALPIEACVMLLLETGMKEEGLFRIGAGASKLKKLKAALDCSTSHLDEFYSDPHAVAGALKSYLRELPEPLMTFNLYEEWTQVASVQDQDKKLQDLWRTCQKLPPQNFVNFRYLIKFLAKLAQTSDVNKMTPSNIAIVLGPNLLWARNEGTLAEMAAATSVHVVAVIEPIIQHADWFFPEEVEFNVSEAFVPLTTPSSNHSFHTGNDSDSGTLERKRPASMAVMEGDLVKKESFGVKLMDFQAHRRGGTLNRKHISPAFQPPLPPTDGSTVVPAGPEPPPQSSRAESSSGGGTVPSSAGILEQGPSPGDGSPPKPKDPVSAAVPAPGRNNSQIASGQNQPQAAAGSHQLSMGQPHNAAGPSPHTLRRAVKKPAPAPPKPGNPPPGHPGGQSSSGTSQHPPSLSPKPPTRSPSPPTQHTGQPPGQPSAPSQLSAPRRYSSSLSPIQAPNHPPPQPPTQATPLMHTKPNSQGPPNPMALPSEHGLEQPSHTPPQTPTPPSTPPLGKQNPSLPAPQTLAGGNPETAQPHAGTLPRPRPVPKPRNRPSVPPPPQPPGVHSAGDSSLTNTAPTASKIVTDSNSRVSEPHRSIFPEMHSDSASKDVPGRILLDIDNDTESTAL
UniProt Q9NW15: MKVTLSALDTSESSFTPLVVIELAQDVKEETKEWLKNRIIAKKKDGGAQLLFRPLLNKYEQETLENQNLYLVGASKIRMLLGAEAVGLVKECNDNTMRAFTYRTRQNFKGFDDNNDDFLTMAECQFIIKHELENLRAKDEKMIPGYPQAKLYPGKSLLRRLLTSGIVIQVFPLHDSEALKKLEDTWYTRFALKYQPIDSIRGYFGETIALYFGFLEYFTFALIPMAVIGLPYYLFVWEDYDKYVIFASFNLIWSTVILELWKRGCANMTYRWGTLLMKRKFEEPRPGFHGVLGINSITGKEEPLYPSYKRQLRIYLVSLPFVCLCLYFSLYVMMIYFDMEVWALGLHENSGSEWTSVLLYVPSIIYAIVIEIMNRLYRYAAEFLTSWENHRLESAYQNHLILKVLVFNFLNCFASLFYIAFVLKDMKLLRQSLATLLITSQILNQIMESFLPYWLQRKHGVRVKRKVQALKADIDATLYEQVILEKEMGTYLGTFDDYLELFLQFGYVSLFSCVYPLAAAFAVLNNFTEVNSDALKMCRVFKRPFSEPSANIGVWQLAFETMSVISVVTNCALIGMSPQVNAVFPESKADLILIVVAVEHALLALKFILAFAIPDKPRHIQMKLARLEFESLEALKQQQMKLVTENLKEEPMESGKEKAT
UniProt P20073: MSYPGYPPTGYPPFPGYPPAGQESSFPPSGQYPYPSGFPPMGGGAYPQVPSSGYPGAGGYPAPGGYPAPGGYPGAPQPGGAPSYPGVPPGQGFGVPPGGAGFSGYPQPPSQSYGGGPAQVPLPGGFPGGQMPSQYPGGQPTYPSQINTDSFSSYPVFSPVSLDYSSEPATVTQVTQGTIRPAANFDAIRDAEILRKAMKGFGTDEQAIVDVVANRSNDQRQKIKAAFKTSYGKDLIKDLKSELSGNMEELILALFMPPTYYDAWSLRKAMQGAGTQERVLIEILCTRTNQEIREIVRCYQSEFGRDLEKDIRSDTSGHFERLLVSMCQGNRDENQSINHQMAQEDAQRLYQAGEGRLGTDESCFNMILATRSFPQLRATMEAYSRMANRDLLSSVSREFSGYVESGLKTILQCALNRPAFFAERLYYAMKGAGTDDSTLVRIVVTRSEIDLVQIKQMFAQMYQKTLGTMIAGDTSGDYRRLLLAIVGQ
UniProt P02649, whole entry, looked up: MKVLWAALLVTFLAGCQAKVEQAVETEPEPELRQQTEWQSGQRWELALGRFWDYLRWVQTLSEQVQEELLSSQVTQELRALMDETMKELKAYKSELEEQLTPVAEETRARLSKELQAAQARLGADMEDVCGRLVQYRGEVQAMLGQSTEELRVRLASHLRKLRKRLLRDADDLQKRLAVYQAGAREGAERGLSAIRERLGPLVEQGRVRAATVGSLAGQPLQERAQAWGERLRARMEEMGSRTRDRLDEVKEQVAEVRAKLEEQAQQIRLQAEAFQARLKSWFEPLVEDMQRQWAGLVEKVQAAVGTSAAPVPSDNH
UniProt Q9BUR5: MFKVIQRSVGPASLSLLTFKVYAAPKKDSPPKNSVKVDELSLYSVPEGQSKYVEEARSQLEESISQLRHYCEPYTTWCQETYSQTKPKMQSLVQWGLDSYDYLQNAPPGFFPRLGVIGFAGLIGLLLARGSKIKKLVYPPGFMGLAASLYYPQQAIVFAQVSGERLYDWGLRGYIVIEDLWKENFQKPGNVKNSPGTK
UniProt Q9BQD7: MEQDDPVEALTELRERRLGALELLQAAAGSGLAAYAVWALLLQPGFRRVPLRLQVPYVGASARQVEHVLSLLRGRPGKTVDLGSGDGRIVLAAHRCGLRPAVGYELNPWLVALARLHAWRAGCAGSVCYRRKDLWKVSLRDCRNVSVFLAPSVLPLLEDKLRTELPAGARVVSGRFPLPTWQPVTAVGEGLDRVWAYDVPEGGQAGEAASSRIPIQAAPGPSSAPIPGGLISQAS

Assays:
Assay in all cases: log2 fold change, soluble protein after heating vs DMSO (PISA); higher = thermal stabilisation; K562 cells, 10 uM, 30 min; active = over 0.2 and 3.5 SD of the protein, either way, in both replicates (recomputed)
[1] = compound: CS(=O)(=O)c1ccc(-c2cnc(N)c(C(=O)Nc3ccccc3)n2)cc1
Outline: (§1)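 K562 cells at 2×10^6 cells/mL were given 10 μM compound for 30 min. Aliquots then went through 3 min of heating across 48°C-58°C, were pooled, and were extracted in PBS with 0.5% NP-40 at 4°C, and the supernatant after 21,000xg for 90 min was quantified by TMTpro 16plex LC-MS/MS with channel sums equalised. Thermal stability relative to control samples, from duplicates, is given as log2 fold change.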

crizotinib = compound: C[C@@H](Oc1cc(-c2cnn(C3CCNCC3)c2)cnc1N)c1c(Cl)ccc(F)c1Cl [crizotinib]
Outline: as §1

[2] = compound: C[C@@H]1COCCN1C2=NC(=NC(=C2)C3(CC3)S(=O)(=O)C)C4=C5C=CNC5=CC=C4
Outline: as §1

[3] = compound: C[C@H](C1=CC=C(C=C1)C(=O)NC2=C3C=CNC3=NC=C2)N
Outline: as §1

duvelisib = compound: C[C@H](Nc1ncnc2nc[nH]c12)c1cc2cccc(Cl)c2c(=O)n1-c1ccccc1 [duvelisib]
Outline: as §1

gandotinib = compound: Cc1cc(Nc2cc(CN3CCOCC3)c3nc(C)c(Cc4ccc(Cl)cc4F)n3n2)n[nH]1 [gandotinib]
Outline: as §1

tozasertib = compound: Cc1cc(Nc2cc(N3CCN(C)CC3)nc(Sc3ccc(NC(=O)C4CC4)cc3)n2)n[nH]1 [tozasertib]
Outline: as §1

[4] = compound: Cc1cc(SCc2sc(-c3ccc(C(F)(F)F)cc3)nc2C)ccc1OCC(=O)O
Outline: as §1

doramapimod = compound: Cc1ccc(-n2nc(C(C)(C)C)cc2NC(=O)Nc2ccc(OCCN3CCOCC3)c3ccccc23)cc1 [doramapimod]
Outline: as §1

ispinesib = compound: Cc1ccc(C(=O)N(CCCN)[C@@H](c2nc3cc(Cl)ccc3c(=O)n2Cc2ccccc2)C(C)C)cc1 [ispinesib]
Outline: as §1

bafetinib = compound: Cc1ccc(NC(=O)c2ccc(CN3CC[C@H](N(C)C)C3)c(C(F)(F)F)c2)cc1Nc1nccc(-c2cncnc2)n1 [bafetinib]
Outline: as §1

[5] = compound: Cc1cccc(CC(=O)N2CCc3c2ccc(-c2cn(C)c4ncnc(N)c24)c3F)n1
Outline: as §1

nilotinib = compound: Cc1cn(-c2cc(NC(=O)c3ccc(C)c(Nc4nccc(-c5cccnc5)n4)c3)cc(C(F)(F)F)c2)cn1 [nilotinib]
Outline: as §1

[6] = compound: Cc1nc(Nc2n[nH]c3c2CN(C(=O)N[C@H](CN(C)C)c2ccccc2)C3(C)C)c2sccc2n1
Outline: as §1

dasatinib = compound: Cc1nc(Nc2ncc(C(=O)Nc3c(C)cccc3Cl)s2)cc(N2CCN(CCO)CC2)n1 [dasatinib]
Outline: as §1

[7] = compound: Cc1ncc(-c2ccnc(Nc3ccc(S(C)(=O)=O)cc3)n2)n1C(C)C
Outline: as §1

[8] = compound: Cn1cc(-c2ccc3c(c2)CCN3C(=O)Cc2cccc(C(F)(F)F)c2)c2c(N)ncnc21
Outline: as §1

[9] = compound: Cn1cc(-c2ccc3nnc(C(F)(F)c4ccc5ncccc5c4)n3n2)cn1
Outline: as §1

tipifarnib = compound: Cn1cncc1[C@@](N)(c1ccc(Cl)cc1)c1ccc2c(c1)c(-c1cccc(Cl)c1)cc(=O)n2C [tipifarnib]
Outline: as §1

mubritinib = compound: FC(F)(F)c1ccc(/C=C/c2nc(COc3ccc(CCCCn4ccnn4)cc3)co2)cc1 [mubritinib]
Outline: as §1

Measured: log2 fold change

AP1S1 (UniProt P61966)
inactive: [1] 0 | crizotinib -0.03 | [2] 0.034 | [3] 0.029 | duvelisib -0.028 | gandotinib -0.023 | tozasertib 0.095 | [4] 0.067 | doramapimod -0.033 | ispinesib -0.046 | bafetinib -0.023 | [5] 0.058 | nilotinib -0.067 | [6] -0.007 | dasatinib -0.059 | [7] -0.014 | [8] -0.073 | [9] -0.016 | tipifarnib -0.072 | mubritinib -0.008

APOBR (UniProt Q0VD83)
inactive: [1] 0.028 | crizotinib 0.081 | [2] 0.055 | [3] 0.02 | duvelisib 0.047 | gandotinib -0.008 | tozasertib -0.025 | [4] -0.055 | doramapimod 0 | ispinesib 0.02 | bafetinib -0.015 | [5] -0.072 | nilotinib -0.028 | [6] 0.041 | dasatinib 0.049 | [7] -0.011 | [8] 0.039 | [9] 0.01 | tipifarnib 0.027 | mubritinib -0.009

ARFIP2 (UniProt P53365)
inactive: [1] -0.035 | crizotinib -0.165 | [2] 0.007 | [3] -0.047 | duvelisib 0.065 | gandotinib -0.191 | tozasertib -0.145 | [4] -0.025 | doramapimod -0.043 | ispinesib -0.13 | bafetinib -0.171 | [5] 0.17 | nilotinib -0.197 | [6] -0.092 | dasatinib -0.284 | [7] 0.009 | [8] 0.06 | [9] 0.029 | tipifarnib -0.084 | mubritinib 0.027

ANXA6 (UniProt P08133)
inactive: [1] 0.07 | crizotinib -0.007 | [2] 0.13 | [3] -0.007 | duvelisib 0.037 | gandotinib 0.114 | tozasertib 0.024 | [4] -0.008 | doramapimod 0.015 | ispinesib -0.026 | bafetinib -0.041 | [5] -0.006 | nilotinib -0.002 | [6] -0.042 | dasatinib 0.038 | [7] -0.006 | [8] 0.026 | [9] 0 | tipifarnib -0.007 | mubritinib 0.034

ARAP1 (UniProt Q96P48)
inactive: [1] -0.038 | crizotinib -0.094 | [2] -0.013 | [3] 0.289 | duvelisib -0.156 | gandotinib -0.15 | tozasertib 0.303 | [4] 0.1 | doramapimod 0.142 | ispinesib -0.178 | bafetinib 0.356 | [5] 0.046 | nilotinib -0.02 | [6] -0.426 | dasatinib -0.146 | [7] -0.008 | [8] -0.219 | [9] -0.053 | tipifarnib 0.21 | mubritinib -0.126

AP1AR (UniProt Q63HQ0)
inactive: [1] -0.012 | crizotinib 0.022 | [2] -0.123 | [3] 0.109 | duvelisib -0.047 | gandotinib -0.211 | tozasertib -0.037 | [4] -0.097 | doramapimod 0.002 | ispinesib -0.109 | bafetinib -0.031 | [5] -0.107 | nilotinib 0.002 | [6] -0.054 | dasatinib 0.058 | [7] -0.015 | [8] -0.041 | [9] 0.02 | tipifarnib 0.015 | mubritinib 0.086

APEX1 (UniProt P27695)
inactive: [1] 0.046 | crizotinib -0.053 | [2] 0.041 | [3] -0.056 | duvelisib -0.003 | gandotinib -0.056 | tozasertib -0.039 | [4] 0.008 | doramapimod -0.032 | ispinesib -0.006 | bafetinib 0.016 | [5] 0.029 | nilotinib -0.017 | [6] 0.056 | dasatinib -0.038 | [7] -0.019 | [8] 0.044 | [9] 0.064 | tipifarnib -0.066 | mubritinib 0.081

ANKRD49 (UniProt Q8WVL7)
inactive: [1] -0.017 | crizotinib 0.035 | [2] 0.075 | [3] -0.08 | duvelisib 0.012 | gandotinib -0.02 | tozasertib 0.012 | [4] 0.036 | doramapimod 0.028 | ispinesib 0.049 | bafetinib -0.001 | [5] 0.125 | nilotinib 0.01 | [6] -0.027 | dasatinib 0.04 | [7] 0.021 | [8] 0.035 | [9] -0.017 | tipifarnib -0.015 | mubritinib 0.106

ARHGAP17 (UniProt Q68EM7)
inactive: [1] 0.059 | crizotinib -0.117 | [2] 0.06 | [3] 0.158 | duvelisib 0.009 | gandotinib 0.046 | tozasertib 0.177 | [4] 0.211 | doramapimod 0.08 | ispinesib -0.106 | bafetinib 0.043 | [5] 0.077 | nilotinib -0.162 | [6] 0.006 | dasatinib -0.291 | [7] 0.417 | [8] -0.024 | [9] -0.002 | tipifarnib -0.182 | mubritinib -0.026

ANO10 (UniProt Q9NW15)
inactive: [1] 0.065 | crizotinib 0.041 | [2] 0.065 | [3] -0.109 | duvelisib 0.013 | gandotinib -0.061 | tozasertib 0.001 | [4] -0.031 | doramapimod -0.038 | ispinesib 0.155 | bafetinib -0.048 | [5] 0.002 | nilotinib -0.047 | [6] 0.033 | dasatinib 0.036 | [7] -0.016 | [8] 0.025 | [9] 0.038 | tipifarnib 0.002 | mubritinib 0.016

ANXA7 (UniProt P20073)
inactive: [1] 0.004 | crizotinib 0.008 | [2] 0.075 | [3] -0.088 | duvelisib 0.038 | gandotinib -0.062 | tozasertib 0.022 | [4] 0.007 | doramapimod -0.085 | ispinesib 0.14 | bafetinib -0.022 | [5] 0.021 | nilotinib -0.028 | [6] 0 | dasatinib -0.052 | [7] -0.012 | [8] 0.041 | [9] -0.051 | tipifarnib -0.016 | mubritinib 0.009

APOE (UniProt P02649)
inactive: [1] 0.057 | crizotinib 0.063 | [2] 0.035 | [3] 0.017 | duvelisib -0.009 | gandotinib 0.029 | tozasertib 0.02 | [4] 0.047 | doramapimod -0.054 | ispinesib 0.026 | bafetinib 0.048 | [5] -0.019 | nilotinib 0.185 | [6] -0.014 | dasatinib 0.011 | [7] 0.026 | [8] 0.191 | [9] 0.062 | tipifarnib 0.049 | mubritinib -0.063

APOO (UniProt Q9BUR5)
inactive: [1] -0.04 | crizotinib -0.057 | [2] 0.092 | [3] -0.025 | duvelisib 0.038 | gandotinib -0.1 | tozasertib 0.007 | [4] -0.025 | doramapimod -0.035 | ispinesib -0.052 | bafetinib -0.113 | [5] 0.018 | nilotinib -0.001 | [6] 0.021 | dasatinib 0.036 | [7] -0.01 | [8] 0.023 | [9] 0.075 | tipifarnib 0.002 | mubritinib 0.046

APEH (UniProt P13798)
inactive: [1] 0.004 | crizotinib 0.051 | [2] 0.036 | [3] -0.031 | duvelisib 0.023 | gandotinib 0.013 | tozasertib -0.033 | [4] -0.048 | doramapimod -0.011 | ispinesib 0.005 | bafetinib -0.027 | [5] -0.034 | nilotinib -0.01 | [6] 0.009 | dasatinib 0.035 | [7] -0.006 | [8] 0.002 | [9] 0.027 | tipifarnib 0.015 | mubritinib 0.037

ANTKMT (UniProt Q9BQD7)
inactive: [1] 0.132 | crizotinib -0.28 | [2] 0.179 | [3] -0.052 | duvelisib -0.023 | gandotinib -0.208 | tozasertib 0.137 | [4] 0.07 | doramapimod -0.051 | ispinesib 0.137 | bafetinib 0.105 | [5] 0.249 | nilotinib 0.031 | [6] -0.099 | dasatinib 0.032 | [7] 0.015 | [8] 0.03 | [9] 0.096

ARHGEF7 isoform 5 (UniProt Q14155)
inactive: [1] -0.028 | crizotinib -0.177 | [2] -0.047 | [3] 0.005 | duvelisib -0.038 | gandotinib -0.044 | tozasertib 0.038 | [4] 0.166 | doramapimod -0.005 | ispinesib -0.063 | bafetinib 0.131 | [5] 0.087 | nilotinib -0.015 | [6] -0.153 | dasatinib -0.194 | [7] -0.037 | [8] 0.048 | [9] -0.045 | tipifarnib -0.029 | mubritinib -0.039

Reprinted from the listing (two entries):
ARAP1 (UniProt Q96P48)
inactive: [1] -0.038 | crizotinib -0.094 | [2] -0.013 | [3] 0.289 | duvelisib -0.156 | gandotinib -0.15 | tozasertib 0.303 | [4] 0.1 | doramapimod 0.142 | ispinesib -0.178 | bafetinib 0.356 | [5] 0.046 | nilotinib -0.02 | [6] -0.426 | dasatinib -0.146 | [7] -0.008 | [8] -0.219 | [9] -0.053 | tipifarnib 0.21 | mubritinib -0.126

AP1AR (UniProt Q63HQ0)
inactive: [1] -0.012 | crizotinib 0.022 | [2] -0.123 | [3] 0.109 | duvelisib -0.047 | gandotinib -0.211 | tozasertib -0.037 | [4] -0.097 | doramapimod 0.002 | ispinesib -0.109 | bafetinib -0.031 | [5] -0.107 | nilotinib 0.002 | [6] -0.054 | dasatinib 0.058 | [7] -0.015 | [8] -0.041 | [9] 0.02 | tipifarnib 0.015 | mubritinib 0.086
